The target in this assay is C. albicans Pkc1p-RBD (aa 371-636) fused to CaGFP (C. albicans) (UniProt P43057). Kind of assay: pull-down; GFP-Trap Agarose (Chromotek) on lysates (200 µg total protein, NP-40 lysis buffer) of C. albicans cells co-expressing Rho1p-13xcMyc and PKC-RBD-CaGFP; western blot of the eluate with anti-cMyc 9E10; wild type, irs4 and inp51 mutants; stationary phase (overnight) or early exponential phase (4 hours subculture). On the technique in general: In western blotting, separated proteins are transferred to a membrane and probed.

By UniProt entry, the sequences of proteins in these tests, tags left out. Residues count along the entry.
UniProt P43057, residues 371-636: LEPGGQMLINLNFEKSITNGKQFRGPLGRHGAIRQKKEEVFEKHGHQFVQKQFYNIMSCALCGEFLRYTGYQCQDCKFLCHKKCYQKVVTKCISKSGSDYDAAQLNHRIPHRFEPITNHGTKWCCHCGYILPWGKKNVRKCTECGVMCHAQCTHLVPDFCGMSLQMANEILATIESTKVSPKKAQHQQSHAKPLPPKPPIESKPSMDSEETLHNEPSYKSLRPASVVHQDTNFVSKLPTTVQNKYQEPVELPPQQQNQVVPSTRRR
UniProt O42825: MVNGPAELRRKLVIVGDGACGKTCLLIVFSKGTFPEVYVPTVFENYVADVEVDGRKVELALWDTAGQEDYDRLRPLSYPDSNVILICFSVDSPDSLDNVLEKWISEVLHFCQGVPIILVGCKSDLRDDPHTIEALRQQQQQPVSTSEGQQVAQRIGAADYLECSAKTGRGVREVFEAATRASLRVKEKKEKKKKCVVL

These are yes or no findings as the source states them, for the method shown. In cells and extracts the contact can be indirect. Some binding calls cover weakened binding; strength is not graded here.

With “Rho1p-13xcMyc (active Rho1p) (from UniProt O42825 1-198)”, the binding entry is on record as “binds”.

For the origin of these results see PMC12135512.
